Measured values: PubChem BioAssay AID1347426 (Functional Genomics Laboratory (NCATS/FGL), 2020)
The whole screen tested about 31,000 sequences, of which about 1,400 (4.5%) were called active.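 How the source made its calls: active means median seed-adjusted z-score above 1 or below -1; inactive means the rest.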 The list shows a part of the results.

test: Novel Modifiers of Survival Motor Neuron (SMN) Protein: Gene Identification via Genome-wide siRNA Screen; conditions: HEK293T SMN2-luciferase reporter, siRNA knockdown, 72 h; actives lie on both sides
From the text: Spinal muscular atrophy (SMA) is the most common neuromuscular autosomal recessive disorder and one of the leading genetic causes of infant death. SMA results from mutations inducing loss of function or deletion in the survival of motor neuron-1 gene (SMN1), leading to deficiency of the survival motor neuron (SMN) protein. Although a second nearly identical gene, SMN2, is retained in humans, its expression primarily produces an aberrantly spliced isoform that is largely unstable and quickly degraded. We performed a genome-wide RNAi screen using a cell-based reporter assay to identify genes and pathways that modulate SMN protein stability. The screen identified over 200 genes that led to the greatest increase or decrease in luciferase expression.
Using HEK293T cells stably expressing a luciferase reporter that combines the promoter and splicing based cassettes in tandem with the major portion of the native SMN2 cDNA with luciferase, we performed a genome-wide RNAi screen to identify modulators of SMN protein levels. Luciferase is expressed when full-length SMN protein is generated with luminescence signal proportional to SMN protein levels. Our luciferase-based reporter assay was used to screen Ambion Silencer Select Human Druggable Genome siRNA library (10418 genes, 3 unique siRNAs per gene) using lipid-based reverse transfection.
Briefly, 1 pmol of each siRNA was spotted to a well of a 384-well plate (Corning, Corning, NY) and 20 microL of serum-free DMEM containing […] of Lipofectamine RNAiMax (Life Technologies, Carlsbad, CA) was then added to each well. Transfected cells were maintained at 37 degrees C in 5% CO2 for 72 hours, 20 microL of ONE-Glo Reagent (Promega) was added to wells for luciferase quantification. Raw luminescence reads were normalized to Ambion(R) Silencer(R) Negative Control #2 siRNA, then log10 transformed. A robust statistical measure of median absolute deviation (MAD) to standardize siRNA activities from each screen. Common Seed Analysis was used to help prioritize clean hits as opposed to those appearing to arise from seed based off-target effects. Candidate modulators were defined as the genes having a MAD score greater than 1.0 or less than -1.0.

Sequence	median seed-adjusted z-score
GGAAGAAUACAACAAGGAATT against CUX1	inactive: -0.527
GGUGAAGACCUAUCGAAGATT against IL13RA2	inactive: 0.113
GCUCGGAAUUUUUAUGAGATT against UPF2	inactive: -0.376
GGAACCUGGAGAUAUCAUUTT against FUT8	inactive: 0.464
GUCAAAUACCAAUGCUUUATT against CERK	inactive: 0
CAGUCUCCCUUUAUACCAATT against TEC	inactive: 0.258
CGACUACGAUGGAAACAUUTT against EXOSC8	inactive: 0.203
CUGUAUAUCUUGUACGGCATT against PIAS2	inactive: -0.096
GCUCCUUUUACUCCGCCUATT against FN3KRP	inactive: 0.00247
GCAACUCCAUGUAAAACCATT against ZNF114	inactive: -0.303
GAACUUGGGUGGAUAGCAATT against EPHA4	inactive: -0.0739
GAAUCAACUCUGAACGGAATT against CBL	inactive: -0.417
GCCUAGUCUGUGAUCCUGUTT against 2-Mar	inactive: 0.335
CCAUGACCUUUAACAACCATT against HIPK2	inactive: 0.156
CAAUGAAGACCUUUUCUAATT against MS4A10	inactive: -0.24
GGUGCUUCAUUUUAGUCAUTT against SERPINB11	inactive: 0
GCAGAUGUAUAAGAAGGCATT against RRM2	active: -3.84
CGUGACCAGUACGAGCAGATT against KRT16	inactive: -0.233
GAAAAGGACUGAAUCGCCATT against DLX4	inactive: -0.0473
GAAGAGUGGUACUACCAGATT against BACE2	inactive: 0.0853
GAGUAGCUAUGGUCAACAATT against EWSR1	inactive: -0.654
CAGUACAGGUUGAGUCAAATT against LRRFIP1	inactive: -0.181

Some values from the entries so far.
In median seed-adjusted z-score, CAGUACAGGUUGAGUCAAATT against LRRFIP1 reads inactive: -0.181
In median seed-adjusted z-score, GCAACUCCAUGUAAAACCATT against ZNF114 reads inactive: -0.303
In median seed-adjusted z-score, CCAUGACCUUUAACAACCATT against HIPK2 reads inactive: 0.156
In median seed-adjusted z-score, CGACUACGAUGGAAACAUUTT against EXOSC8 reads inactive: 0.203
In median seed-adjusted z-score, CAAUGAAGACCUUUUCUAATT against MS4A10 reads inactive: -0.24
In median seed-adjusted z-score, GAACUUGGGUGGAUAGCAATT against EPHA4 reads inactive: -0.0739

Additional results

Sequence	median seed-adjusted z-score
CAGCUGCAGUAUCUCGGAATT against EHMT1	inactive: 0.00857
GCAGGACCUCGUCAUCGAATT against ZNF296	inactive: -0.00618
GGUGCCUCUUGUAUCCCUATT against CRABP1	inactive: -0.625
GAGUGGACAUUGCUGGAUATT against ZNF700	inactive: 0
CCUCCAGGGAAUUACAAGATT against FGF1	inactive: 0.415
CAGUAUCACUUGCUGAACATT against ALOX12	inactive: -0.247
CAGUGAAUCUUGGUUGUAATT against TBP	active: -1.25
ACGGAACCUUGAACAGAGATT against CIB1	inactive: 0.14
GAAUGCAUCUGUUCUUCUATT against VN1R1	inactive: 0.531
GACUGUCGUCCGAAACAUATT against PGLYRP3	inactive: -0.671
GCCCAACAAGUGCAUGUUUTT against GLIS1	inactive: 0.838
GGAUGACCUCGAUGAUGAATT against DPF2	inactive: 0.373
AUAUCUGAGUAAUUGGUUUTT against SIP1	inactive: -0.443
CUACAAGACAGGCAAUCUATT against IFI30	inactive: 0.401
CAAGGUUCCUGCACCUAAATT against CLASP2	inactive: 0.157
CACACAUCGAAGCUCAGAATT against PDLIM7	inactive: 0.548
GCGGUAACCUGGUACAAGATT against IL18RAP	inactive: -0.681
GCAGAUAUCGUACCCAAAATT against PPID	inactive: -0.206
GAUCCCAACUGUUUCGUUUTT against AKAP10	inactive: 0.0689
CAUCCGCUCCAAGUUCAAATT against AP2A1	inactive: 0.559
GAUAAGUUAUCAAGUCGUATT against AFF4	inactive: -0.0637
CAUUGAGCGUGGACUGGUATT against ACTRT1	inactive: 0

Sequence	median seed-adjusted z-score
GAAACGUGAUGGAGAGUAATT against ZNF212	inactive: 0.863
GAAUCUAUGAGAUGAACAATT against LDB2	inactive: -0.0847
CAGGGAGACUGGUGAGAAATT against ZNF565	inactive: 0.457
CGACCUCUUCAACAGCAAUTT against CEBPD	inactive: -0.101
CUAUCUCACCAAGAUCUAUTT against PODN	inactive: 0.589
ACAGAUAUAUUCACUCCAATT against OSR1	inactive: -0.185
CGCUAUGUCUUGUUAUCAATT against PREP	inactive: 0.0883
CGAGCAGAAUUACUACCGGTT against FOXC2	inactive: -0.792
CUUAAUUCUUGGUCUAUGATT against SP6	inactive: -0.176
GGAUCCGAAAGAACAAUAATT against SELP	inactive: -0.879
GAACUAUGCCGAUCAGAUUTT against MAPK8IP3	inactive: 0.734
GGCCUACGCUCAGAAUCAUTT against FUK	inactive: -0.0381
CUCUAUCAUUACUCCAAGATT against SULT2B1	inactive: 0
AGACAGAGCUACGACAUCATT against CARM1	inactive: 0.317
GGAAGUUAUUUAGAGAUAUTT against ZNF419	inactive: 0.0405
UCAGGAUUGUUUCUCGGCATT against HSD11B2	inactive: 0.215
CCCACGAAGAGAAGUCUUATT against ZNF498	inactive: -0.476
CGAAGACUGCCUCAAGUGUTT against LMO1	inactive: 0.104
CAGUUAUGAUUGGUGGAGATT against CDC42	inactive: -0.0938
GCCGCUUUGAGGACCAGUATT against RASD2	inactive: 0.0673
GGCUUUUUCUAAUCAGGCATT against MSC	inactive: -0.208
GCCUAGCUCUCUUCACGUATT against NEO1	inactive: 0.16

Sequence	median seed-adjusted z-score
CAACCACACCUCAACAAAATT against FGD4	inactive: -0.0017
GGAUCUCGCUGGAAGUCCATT against SOX13	inactive: 0.867
CUGUAAGACGUGUCCCUAUTT against GRM4	inactive: -0.71
CCAUAGAUGGGACUCCUAATT against PAPOLG	inactive: 0.0674
CUGUCUACAUCGUCCAAGATT against EFNB1	inactive: -0.448
GACUCAAGUAUAGAUUAAATT against LBR	inactive: 0.303
UUACAGACCUGAGCACUUATT against BAHD1	inactive: 0.376
GGCUCCUACGCAUCAAGAATT against USH1C	inactive: -0.164
GCAUCCAUGAAACAACUUATT against ACTC1	inactive: 0
GCUCGUCGGUGUUCUGCAATT against RPH3AL	inactive: 0.21
CAAAUUUCCUGUUAAUCGATT against APPL1	inactive: 0
CCAGUGCCCUUAUAAGAGATT against WFDC12	inactive: 0
CAAGGAAGCAGGUAUGUGATT against SRA1	inactive: 0.677
CAUCUUUCUUGAUCAACAUTT against CALR	inactive: -0.795
GAAUGACCAGAAUCUAGAATT against ALG9	inactive: -0.267
GCUGUGAUGUAGAAUCAAATT against SHBG	inactive: 0.587
GCACAGUUCUCAGCAUUCATT against PAPPA2	inactive: -0.173
UCUCCAAACCUGCUGCUAATT against MYL6B	inactive: 0.11
GAGUGUAUAUGGUAGGGAATT against ATP6AP2	inactive: -0.705
GUGAGGAUCUUAAAGACCATT against LIMA1	inactive: -0.359
GCAUCGGCAUCUUCACGCUTT against FZD5	inactive: -0.129
GCUUCUAUCAUGAUUGGAATT against OLA1	inactive: -0.408

Sequence	median seed-adjusted z-score
CGGUGACUCUUUAUGCACATT against PMPCB	inactive: 0.507
CCACCAUACGAUACAGAGATT against NTN4	inactive: 0.462
GGAUAAGUCAAUACAAUUUTT against HS3ST5	inactive: -0.725
GAUCCGUGGUUGCACCUAUTT against DPP10	inactive: -0.0478
GGCAAGAAGUUCGAAGUGATT against NTN1	inactive: -0.0419
GGGCAUUUCUGGGACAGGUTT against MPG	inactive: -0.0888
GGGUCUGCAAGGAUAUGAATT against ACY1	inactive: -0.153
GCAGCACAAUGAGAGGCUATT against ACTN1	inactive: 0
GGCUAAUCGUGAACCGGAATT against DOCK8	inactive: 0.243
GGCGCAGAAUGAAUUCCAATT against TCEB3	inactive: 0.232
GGCACUCCAUGCUCACUGUTT against AGPAT1	active: -1.38
GUAGCUCGGCAAUUAAUAATT against TXNDC4	inactive: 0.351
CCCUUCCUCUAUUCGAACATT against POLDIP3	inactive: 0.108
GGGAUUCUCUCUCUAAGUATT against HOXD4	inactive: 0.566
GAAGCUCCCGAUUGCAAUATT against SIRT4	inactive: 0.623
UCCCAAACCUUCACCAUCATT against THAP8	inactive: -0.872
CCUUUAUCAGAUGAAUAAATT against RBM11	inactive: -0.0341
AUAUUUCCCAUGAUACUUUTT against BXDC1	inactive: 0.173
GUACAAUACAAACACUUAATT against ORC4L	inactive: -0.286
CGCCCACGCAGAACAUGAATT against SS18L1	inactive: -0.174
